Among the data in PMC11215771 are binding values, retold here.

These are yes or no findings as the source states them, for the method shown. Binding seen in cells or lysates may run through a third protein. Some results given as binding are weak or reduced against the parent protein; the word gives no strength. Sequences can lack the tags named with a protein.

The assay deals with human BACE1 (β-site of APP cleaving enzyme 1), wild type, untagged, expressed in HEK293T cells (human), P56817. Conditions: remark: other sources report otherwise.

B1: human BACE1 (β-site of APP cleaving enzyme 1), wild type, untagged, expressed in HEK293T cells, P56817-1 46-501 (enzyme)
chain: ETDEEPEEPGRRGSFVEMVDNLRGKSGQGYYVEMTVGSPPQTLNILVDTGSSNFAVGAAPHPFLHRYYQRQLSSTYRDLRKGVYVPYTQGKWEGELGTDLVSIPHGPNVTVRANIAAITESDKFFINGSNWEGILGLAYAEIARPDDSLEPFFDSLVKQTHVPNLFSLQLCGAGFPLNQSEVLASVGGSMIIGGIDHSLYTGSLWYTPIRREWYYEVIIVRVEINGQDLKMDCKEYNYDKSIVDSGTTNLRLPKKVFEAAVKSIKAASSTEKFPDGFWLGEQLVCWQAGTTPWNIFPVISLYLMGEVTNQSFRITILPQQYLRPVEDVATSQDDCYKFAISQSSTGTVMGAVIMEGFYVVFDRARKRIGFAVSACHVHDEFRTAAVEGPFVTLDMEDCGYNIPQTDESTLMTIAYVMAAICALFMLPLCLMVCQWRCLRCLRQQHDDFADDISLLK
With B1, the binding entry is recorded as “binds”.
